Measurements from patent US20220120732A1, “TREATMENT OF DISEASES WITH MULTIMERIC PEPTIDES” (Ramot at Tel-Aviv University Ltd., priority 2019, published 2022).
These are yes or no findings as the source states them, for the method shown. A result given as binding can be weak or reduced; the word gives no strength.

Key:
[1] = target: CD45 (Receptor type tyrosine-protein phosphatase C) on human PBMCs (human); experiment: blocking of CD45 on PBMCs; IFN-gamma ELISA read-out (FIG. 20)
[2] = target: CD45 (Receptor type tyrosine-protein phosphatase C) on human PBMCs (human); experiment: figure legend of FIG. 20 (CD45 blocking, IFN-gamma secretion)
[3] = target: CD45 (Receptor type tyrosine-protein phosphatase C) on human PBMCs (human); experiment: blocking of CD45 on PBMCs with anti-CD45 antibody or CD45 inhibitor VI; Western blot of phospho-Lck and phospho-ZAP70 (FIG. 17)

Measured: binding

B1: C24D (peptide)
peptide: CGHHLLRPRRRKRPHSIPTPILIFRSP
binds: all assays above
